According to PubChem BioAssay AID248 (DTP/NCI, 2004):
The list shows only some results of the screen, not a fair sample: it gathers tests that were run many times, whatever their T/C, doses with no T/C, and many T/C values between a quarter and a half above the control. Further doses and runs are listed elsewhere. T/C: endpoint of the treated group in % of that of the vehicle group. Some entries give survivors of the animals treated and no T/C: the source files T/C as zero there, which appears to mark a toxic dose or a test without result, not a measured value. Some doses without a T/C left all or most animals alive at the check, yet need not have been tolerated: survival well below the control is almost never listed, so the zero probably covers shortened survival too. Survivors were counted at the toxicity check, usually on the fifth day, unless a day is given; later deaths do not show. Schedule codes are those of the source, taken here to give the interval after Q, in days (D) or hours (H), and the number of doses after X. Some schedule codes hold Z or #, which are not explained here. Where survival is the endpoint, this PubChem deposit counts one and a half times the control or more as active, and values a quarter to a half above the control carry no call in these data; other NCI protocols may use other cut-offs. Some entries hold several experiments; the results are listed from low to high. Some T/C values are followed by the survivors on the day toxicity was checked, most often the fifth; where none is given, no animal had died by that day.

Tested on: L1210 leukemia ip in BDF1 mice, survival T/C
Test: NCI In Vivo Anticancer Drug Screen. Data for tumor model L1210 Leukemia (intraperitoneal) in B6D2F1 (BDF1) mice
Conditions: T/C endpoint: mean survival time, higher T/C = longer survival
[1] = dose: 25.0 mg/kg/injection, schedule: Q01DX009 (ip), vehicle: saline
[2] = dose: 150.0 mg/kg/injection, schedule: Q01DX001 (ip), vehicle: saline
[3] = dose: 300.0 mg/kg/injection, schedule: Q01DX001 (ip), vehicle: saline
[4] = dose: 100.0 mg/kg/injection, schedule: Q04DX003 (ip), vehicle: Klucel (hydroxypropylcellulose) (HPC)
[5] = dose: 200.0 mg/kg/injection, schedule: Q04DX003 (ip), vehicle: Klucel (hydroxypropylcellulose) (HPC)
[6] = dose: 400.0 mg/kg/injection, schedule: Q04DX003 (ip), vehicle: Klucel (hydroxypropylcellulose) (HPC)
[7] = dose: 40.0 mg/kg/injection, schedule: Q01DX001 (ip), vehicle: saline
[8] = dose: 400.0 mg/kg/injection, schedule: Q01DX001 (ip), vehicle: saline
[9] = dose: 50.0 mg/kg/injection, schedule: Q01DX009 (ip), vehicle: saline

In the case of `c1ncc(OCCN2CC2)nc1OCCN1CC1`, the survivor count (dose: 1.0 mg/kg/injection, schedule: Q01DX009 (ip), vehicle: carboxymethylcellulose (CMC)) is reported as 2 of 6, the survivor count (dose: 1.5 mg/kg/injection, schedule: Q01DX009 (ip), vehicle: carboxymethylcellulose (CMC)) is reported as 0 of 6 and the T/C (dose: 2.0 mg/kg/injection, schedule: Q01DX009 (ip), vehicle: saline) is reported as 126 % of control. The survivor count (dose: 2.3 mg/kg/injection, schedule: Q01DX009 (ip), vehicle: carboxymethylcellulose (CMC)) was 0 of 6, the survivor count (dose: 3.5 mg/kg/injection, schedule: Q01DX009 (ip), vehicle: carboxymethylcellulose (CMC)) was 0 of 6 and the survivor count (dose: 5.5 mg/kg/injection, schedule: Q01DX009 (ip), vehicle: saline) was 0 of 6. For the same molecule, the survivor count (dose: 11.1 mg/kg/injection, schedule: Q01DX009 (ip), vehicle: saline) was 0 of 6, the T/C (dose: 12.5 mg/kg/injection, schedule: Q01DX001 (ip), vehicle: carboxymethylcellulose (CMC)) was 143 % of control and the T/C (dose: 16.6 mg/kg/injection, schedule: Q01DX001 (ip), vehicle: carboxymethylcellulose (CMC)) was 132 % of control. For the same molecule, the survivor count (dose: 16.6 mg/kg/injection, schedule: Q01DX001 (ip), vehicle: saline) was 3 of 6, the survivor count (dose: 16.6 mg/kg/injection, schedule: Q01DX009 (ip), vehicle: saline) was 0 of 6 and the T/C (dose: 25.0 mg/kg/injection, schedule: Q01DX001 (ip), vehicle: carboxymethylcellulose (CMC)) was 141 and 147 % of control. For the same molecule, the T/C (dose: 25.0 mg/kg/injection, schedule: Q01DX001 (ip), vehicle: saline) was 147 % of control [4 of 6 alive], the survivor count [1] was 0 of 6 and the survivor count (dose: 37.5 mg/kg/injection, schedule: Q01DX001 (ip), vehicle: carboxymethylcellulose (CMC)) was 0 of 6. The survivor count (dose: 37.5 mg/kg/injection, schedule: Q01DX001 (ip), vehicle: saline) was 0 of 6, the survivor count (dose: 50.0 mg/kg/injection, schedule: Q01DX001 (ip), vehicle: carboxymethylcellulose (CMC)) was 0 of 6 and the survivor count (dose: 100.0 mg/kg/injection, schedule: Q01DX001 (ip), vehicle: carboxymethylcellulose (CMC)) was 0 of 6. For the same molecule, the survivor count (dose: 200.0 mg/kg/injection, schedule: Q01DX001 (ip), vehicle: carboxymethylcellulose (CMC)) was 0 of 6 and the survivor count (dose: 400.0 mg/kg/injection, schedule: Q01DX001 (ip), vehicle: carboxymethylcellulose (CMC)) was 0 of 6.

For `O=C(CN(CCO)CCO)c1ccc([N+](=O)[O-])cc1`, the survivor count [2] was 0 of 6 and the survivor count [3] was 0 of 6.

`CCN(CC)CCn1c2ccccc2c2cnccc21` was tested, and the survivor count (dose: 100.0 mg/kg/injection, schedule: Q04DX003 (ip), vehicle: saline) was 3 of 6, the survivor count (dose: 200.0 mg/kg/injection, schedule: Q04DX003 (ip), vehicle: saline) was 1 of 6 and the survivor count (dose: 400.0 mg/kg/injection, schedule: Q04DX003 (ip), vehicle: saline) was 0 of 6.

`O=C(O)CNCCN1CC(=O)N(Cc2ccccc2)C1=S` was tested, and the survivor count (dose: 400.0 mg/kg/injection, schedule: Q04DX003 (ip), vehicle: carboxymethylcellulose (CMC)) was 5 of 6.

`C=CCN(CC#N)CC#N` was tested, and the survivor count (dose: 20.0 mg/kg/injection, schedule: Q04DX003 (ip), vehicle: Klucel (hydroxypropylcellulose) (HPC)) was 0 of 6, the survivor count (dose: 40.0 mg/kg/injection, schedule: Q04DX003 (ip), vehicle: Klucel (hydroxypropylcellulose) (HPC)) was 0 of 6 and the survivor count [4] was 0 of 6. For the same molecule, the survivor count [5] was 0 of 6 and the survivor count [6] was 0 of 6.

For `CCC1(CC)OC2=C(CC(C#N)(C#N)C(C#N)(C#N)C2)O1`, the survivor count [7] was 2 of 6, the survivor count (dose: 75.0 mg/kg/injection, schedule: Q01DX001 (ip), vehicle: saline) was 1 of 6 and the survivor count [2] was 0 of 6. For the same molecule, the survivor count [3] was 0 of 6.

In the case of `COC(C)CCC(=O)O.[Ag]` (stereo unspecified), the survivor count (dose: 50.0 mg/kg/injection, schedule: Q04DX003 (ip), vehicle: saline with Tween-80) is reported as 6 of 6, the survivor count (dose: 100.0 mg/kg/injection, schedule: Q04DX003 (ip), vehicle: acetone) is reported as 0 of 6 and the survivor count (dose: 200.0 mg/kg/injection, schedule: Q04DX003 (ip), vehicle: acetone) is reported as 0 of 6. The survivor count (dose: 400.0 mg/kg/injection, schedule: Q04DX003 (ip), vehicle: acetone) was 0 of 6.

With `NC(N)=N/N=C/c1ccc(Cl)cc1Cl` the survivor count (dose: 99.0 mg/kg/injection, schedule: Q01DX010 (oral), vehicle: saline) was 4 of 7, the survivor count (dose: 125.0 mg/kg/injection, schedule: Q01DX Z (ip), vehicle: saline) was 4 of 6 and the survivor count (dose: 148.0 mg/kg/injection, schedule: Q01DX010 (oral), vehicle: saline) was 4 of 6. For the same molecule, the survivor count (dose: 222.0 mg/kg/injection, schedule: Q01DX010 (oral), vehicle: saline) was 3 of 6, the survivor count (dose: 222.0 mg/kg/injection, schedule: Q01DX Z (oral), vehicle: saline) was 0 of 6 and the survivor count (dose: 250.0 mg/kg/injection, schedule: Q01DX Z (ip), vehicle: saline) was 0 of 6. For the same molecule, the survivor count (dose: 333.0 mg/kg/injection, schedule: Q01DX Z (oral), vehicle: saline) was 0 of 6, the survivor count [8] was 0 of 4 and the survivor count (dose: 500.0 mg/kg/injection, schedule: Q01DX Z (ip), vehicle: saline) was 0 of 6. The survivor count (dose: 500.0 mg/kg/injection, schedule: Q01DX Z (oral), vehicle: saline) was 0 of 6.

With `ClCCN(CCCl)CCCN1c2ccccc2Sc2ccc(Cl)cc21` the survivor count (dose: 25.0 mg/kg/injection, schedule: Q01DX009 (ip), vehicle: saline with Tween-80) was 5 of 6, the survivor count (dose: 50.0 mg/kg/injection, schedule: Q01DX009 (ip), vehicle: saline with Tween-80) was 3 of 6 and the survivor count (dose: 75.0 mg/kg/injection, schedule: Q04DX003 (ip), vehicle: alcohol) was 1 of 6. The survivor count (dose: 113.0 mg/kg/injection, schedule: Q04DX003 (ip), vehicle: alcohol) was 0 of 6 and the survivor count (dose: 170.0 mg/kg/injection, schedule: Q04DX003 (ip), vehicle: alcohol) was 0 of 6.

With `O=C(CC(=O)c1ccccc1)c1ccccc1.[Tl]` the survivor count [4] was 0 of 6, the survivor count [5] was 0 of 6 and the survivor count [6] was 0 of 6.

With `CCC[N+](CCC)(CCC)Cc1ccccc1` the survivor count [7] was 1 of 4, the survivor count (dose: 50.0 mg/kg/injection, schedule: Q01DX001 (ip), vehicle: saline) was 0 of 4 and the survivor count (dose: 80.0 mg/kg/injection, schedule: Q01DX001 (ip), vehicle: saline) was 0 of 4. The survivor count (dose: 100.0 mg/kg/injection, schedule: Q01DX001 (ip), vehicle: saline) was 0 of 4, the survivor count (dose: 200.0 mg/kg/injection, schedule: Q01DX001 (ip), vehicle: saline) was 0 of 4 and the survivor count [8] was 0 of 4.

`Cl[CH2][Sn]([c]1ccccc1)([c]1ccccc1)[c]1ccccc1` was tested, and the survivor count [1] was 3 of 3, the survivor count [9] was 2 of 3 and the survivor count (dose: 100.0 mg/kg/injection, schedule: Q01DX009 (ip), vehicle: saline) was 0 of 3. The survivor count (dose: 200.0 mg/kg/injection, schedule: Q01DX009 (ip), vehicle: saline) was 0 of 3.

For `CC(C)=CC(=O)OCC[N+](C)(C)C`, the survivor count [1] was 6 of 6 and the survivor count [9] was 0 of 6.

For `NC(N)=Nc1nc(N)nc(N)n1`, the survivor count (dose: 100.0 mg/kg/injection, schedule: Q01DX009 (ip), vehicle: saline with Tween-80) was 1 of 3 and the survivor count (dose: 200.0 mg/kg/injection, schedule: Q01DX009 (ip), vehicle: saline with Tween-80) was 0 of 3.

With `O=C(O)CO` the survivor count [8] was 2 of 4.

In the case of `Cc1[nH]nc(C(=O)N(C)C)c1N=NN(C)C`, the T/C [2] is reported as 131 % of control [5 of 6 alive] and the survivor count [3] is reported as 3 of 6.

`CCCP(=S)(C(C)C)C(C)C` was tested, and the survivor count (dose: 200.0 mg/kg/injection, schedule: Q04DX003 (ip), vehicle: saline with Tween-80) was 1 of 6 and the survivor count (dose: 400.0 mg/kg/injection, schedule: Q04DX003 (ip), vehicle: saline with Tween-80) was 0 of 6.
